The list shows a part of the results. Single values of this set are uncertain.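 The cells are a human neuroglioma line carrying a green fluorescent autophagy reporter.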
What follows are compounds tested on H4 GFP-LC3 (assay: cell viability (scaled to control) (fraction of control); higher = more viable cells). Settings: 5 µM; 24 h.
For `Nc1ccc(CCN2CCN(c3cccc(C(F)(F)F)c3)CC2)cc1`, the cell viability was 0.921. For `Clc1cccc(SC2CCNCC2)n1`, the cell viability was 1.02. Work on `C[C@]12CC[C@@H](O)C[C@@H]1CC[C@@H]1[C@@H]2CC[C@]2(C)[C@@H](C(=O)CO)CC[C@@H]12` yielded a cell viability of 1.01. `O=C(Cc1ccc(Cl)c(Cl)c1)N1CCCCC1CN1CCCC1` (stereo not drawn) was tested, and the cell viability was 0.995. `C[C@@H](NC(=O)[C@@H](N)Cc1ccc(O)cc1)C(=O)N[C@@H](Cc1ccccc1)C(=O)NCC(=O)N[C@@H](Cc1ccc(O)cc1)C(=O)N1CCC[C@H]1C(=O)N[C@@H](CO)C(N)=O` gave a cell viability of 1.2. `CCCC[N+]1(C)[C@@H]2CC(OC(=O)[C@H](CO)c3ccccc3)C[C@H]1[C@@H]1O[C@@H]12` (stereo partly drawn) showed a cell viability of 1.22. `CCN1C[C@]2(C)CC[C@H](O)[C@]34C1[C@@H](C[C@H]23)[C@@]1(O)C[C@H](OC)[C@H]2C[C@@H]4[C@@H]1[C@H]2O` gave a cell viability of 1.23. Compound `CN1CCC(c2c[nH]c3ccc(O)cc23)CC1` has a cell viability of 1.09. Compound `C=CCN1CCC2(C)c3cc(O)ccc3CC1C2C` (racemic) has a cell viability of 1.1. `Clc1ccc(N2CCN(Cc3c[nH]c4ncccc34)CC2)cc1` gave a cell viability of 1.22. `CCN1C[C@]2(COC)CC[C@H](OC)[C@]34C5C[C@@H]6[C@@H](OC)C[C@@]7(OCO[C@@]7(C13)[C@@H](O)C24)C5[C@H]6OC` (stereo partly drawn) showed a cell viability of 0.913. `CN(C(=O)Cc1ccccc1)[C@H](CN1CCCC1)c1ccccc1` gave a cell viability of 1.05. `C[N+]1(C)CCOC(O)(c2ccc(-c3ccc(C4(O)C[N+](C)(C)CCO4)cc3)cc2)C1` (stereo not drawn) gave a cell viability of 1.3. Compound `Oc1ccc2c3c1O[C@H]1c4c(c5ccccc5n4Cc4ccccc4)C[C@@]4(O)[C@@H](C2)N(CC2CC2)CC[C@]314` has a cell viability of 1.31. Work on `O=C(O)/C=C/CO` yielded a cell viability of 1.19.

The compounds below were run on H4 GFP-LC3 (assay: ACBP immunofluorescence intensity (scaled to control) (AU (scaled)); higher = more intracellular ACBP/DBI). Settings: 5 µM; 6 h.
`CC(=O)N1CC[N+](C)(C)CC1` was tested, and the ACBP immunofluorescence intensity was 0.946. In the case of `COc1ccc(C(CN(C)C)C2(O)CCCCC2)cc1` (stereo not drawn), the ACBP immunofluorescence intensity was 0.992. Work on `COc1cccc(C2(O)CCCCC2CN(C)C)c1` (stereo not drawn) yielded an ACBP immunofluorescence intensity of 0.865. `COC(=O)[C@@H]1C[C@H](OC(C)=O)C(=O)[C@H]2[C@@]1(C)CC[C@H]1C(=O)O[C@H](c3ccoc3)C[C@]21C` gave an ACBP immunofluorescence intensity of 0.766. Work on `C1CCc2nnnn2CC1` yielded an ACBP immunofluorescence intensity of 0.975. `CCNC(=O)[C@H]1O[C@@H](n2cnc3c(N)ncnc32)[C@H](O)[C@@H]1O` gave an ACBP immunofluorescence intensity of 0.97. Compound `CNCC(O)c1ccc(O)cc1` (stereo not drawn) has an ACBP immunofluorescence intensity of 0.882. `C=CCN1CC[C@]23CCCC[C@H]2[C@H]1Cc1ccc(O)cc13` was tested, and the ACBP immunofluorescence intensity was 0.842. In the case of `CC(=O)OC1CN2CCC1CC2` (stereo not drawn), the ACBP immunofluorescence intensity was 0.859. `COC(=O)/C=C/C(=O)N[C@@H]1CC[C@@]2(O)[C@H]3Cc4ccc(O)c5c4[C@@]2(CCN3CC2CC2)[C@H]1O5` gave an ACBP immunofluorescence intensity of 0.828. In the case of `Clc1cncc(N2CCNCC2)n1`, the ACBP immunofluorescence intensity was 1. With `N[C@@H](Cn1oc(=O)[nH]c1=O)C(=O)O` the ACBP immunofluorescence intensity was 0.892. For `CC(C)c1cccc(C(C)C)c1O`, the ACBP immunofluorescence intensity was 0.831. Work on `CSCCC(NC(=O)C(Cc1ccccc1)NC(=O)CNC(=O)CNC(=O)C(N)Cc1ccc(O)cc1)C(=O)O` (stereo not drawn) yielded an ACBP immunofluorescence intensity of 0.686. In the case of `Cc1nc(N)sc1CCN`, the ACBP immunofluorescence intensity was 0.939. In the case of `CCCN1CCO[C@@H]2c3cc(O)ccc3OC[C@H]21`, the ACBP immunofluorescence intensity was 0.499. `Fc1ccc(C(OCCN2CCN(CCCc3ccccc3)CC2)c2ccc(F)cc2)cc1` was tested, and the ACBP immunofluorescence intensity was 0.954. `CN(C)Cc1c[nH]c2ccccc12` showed an ACBP immunofluorescence intensity of 0.902. Compound `C[N+]1(C)CCc2cc3c(cc2C1C1OC(=O)c2c1ccc1c2OCO1)OCO3` (single isomer, unassigned; (-)) has an ACBP immunofluorescence intensity of 0.957. `c1ccc(CCCN2CCN(CCOC(c3ccccc3)c3ccccc3)CC2)cc1` was tested, and the ACBP immunofluorescence intensity was 0.781. Work on `Nc1ccc(CCN2CCN(c3cccc(C(F)(F)F)c3)CC2)cc1` yielded an ACBP immunofluorescence intensity of 0.994. Compound `Clc1cccc(SC2CCNCC2)n1` has an ACBP immunofluorescence intensity of 0.843. `C[C@]12CC[C@@H](O)C[C@@H]1CC[C@@H]1[C@@H]2CC[C@]2(C)[C@@H](C(=O)CO)CC[C@@H]12` showed an ACBP immunofluorescence intensity of 0.989. For `O=C(Cc1ccc(Cl)c(Cl)c1)N1CCCCC1CN1CCCC1` (stereo not drawn), the ACBP immunofluorescence intensity was 0.925. `C[C@@H](NC(=O)[C@@H](N)Cc1ccc(O)cc1)C(=O)N[C@@H](Cc1ccccc1)C(=O)NCC(=O)N[C@@H](Cc1ccc(O)cc1)C(=O)N1CCC[C@H]1C(=O)N[C@@H](CO)C(N)=O` was tested, and the ACBP immunofluorescence intensity was 0.847. `CCCC[N+]1(C)[C@@H]2CC(OC(=O)[C@H](CO)c3ccccc3)C[C@H]1[C@@H]1O[C@@H]12` (stereo partly drawn) was tested, and the ACBP immunofluorescence intensity was 0.837. `CCN1C[C@]2(C)CC[C@H](O)[C@]34C1[C@@H](C[C@H]23)[C@@]1(O)C[C@H](OC)[C@H]2C[C@@H]4[C@@H]1[C@H]2O` showed an ACBP immunofluorescence intensity of 0.96. With `CN1CCC(c2c[nH]c3ccc(O)cc23)CC1` the ACBP immunofluorescence intensity was 0.989.
